In publication doi:10.1101/692707 one finds binding data, which are given here for one molecule.

The chains behind the UniProt entries cited, without tags or fusion partners. Residues count along the entry.
UniProt P0A6F5, residues 191-376: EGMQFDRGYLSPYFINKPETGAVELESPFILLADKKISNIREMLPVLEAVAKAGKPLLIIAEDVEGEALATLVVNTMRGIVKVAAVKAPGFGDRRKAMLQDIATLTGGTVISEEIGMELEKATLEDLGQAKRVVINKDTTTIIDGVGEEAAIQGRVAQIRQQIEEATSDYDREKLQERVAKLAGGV

This experiment deals with non-UMPylated GroEL (GroEL191-376aa), biotinylated by EZ-Link-Biotin (E. coli str. K12 substr. MG1655) (UniProt P0A6F5). The experiment is described as follows: pull-down.

Results are given in words; binding and its absence hold for the method and conditions named. Some entries that bind do so weakly or less than the wild type.

B1: human ornithine carbamoyltransferase (protein, UniProt P00480 33-354)
chain: NKVQLKGRDLLTLKNFTGEEIKYMLWLSADLKFRIKQKGEYLPLLQGKSLGMIFEKRSTRTRLSTETGFALLGGHPCFLTTQDIHLGVNESLTDTARVLSSMADAVLARVYKQSDLDTLAKEASIPIINGLSDLYHPIQILADYLTLQEHYSSLKGLTLSWIGDGNNILHSIMMSAAKFGMHLQAATPKGYEPDASVTKLAEQYAKENGTKLLLTNDPLEAAHGGNVLITDTWISMGQEEEKKKRLQAFQGYQVTMKTAKVAASDWTFLHCLPRKPEEVDDEVFYSPRSLVFPEAENRKWTIMAVMVSLLTDYSPQLQKPKF
Regarding B1, the binding result was “binds”.
